Binding data for two substances are collected here from paper doi:10.1101/2021.08.09.455663.

Protein sequences, listed by entry. Tags and fused reporters are not part of them.
UniProt P42224: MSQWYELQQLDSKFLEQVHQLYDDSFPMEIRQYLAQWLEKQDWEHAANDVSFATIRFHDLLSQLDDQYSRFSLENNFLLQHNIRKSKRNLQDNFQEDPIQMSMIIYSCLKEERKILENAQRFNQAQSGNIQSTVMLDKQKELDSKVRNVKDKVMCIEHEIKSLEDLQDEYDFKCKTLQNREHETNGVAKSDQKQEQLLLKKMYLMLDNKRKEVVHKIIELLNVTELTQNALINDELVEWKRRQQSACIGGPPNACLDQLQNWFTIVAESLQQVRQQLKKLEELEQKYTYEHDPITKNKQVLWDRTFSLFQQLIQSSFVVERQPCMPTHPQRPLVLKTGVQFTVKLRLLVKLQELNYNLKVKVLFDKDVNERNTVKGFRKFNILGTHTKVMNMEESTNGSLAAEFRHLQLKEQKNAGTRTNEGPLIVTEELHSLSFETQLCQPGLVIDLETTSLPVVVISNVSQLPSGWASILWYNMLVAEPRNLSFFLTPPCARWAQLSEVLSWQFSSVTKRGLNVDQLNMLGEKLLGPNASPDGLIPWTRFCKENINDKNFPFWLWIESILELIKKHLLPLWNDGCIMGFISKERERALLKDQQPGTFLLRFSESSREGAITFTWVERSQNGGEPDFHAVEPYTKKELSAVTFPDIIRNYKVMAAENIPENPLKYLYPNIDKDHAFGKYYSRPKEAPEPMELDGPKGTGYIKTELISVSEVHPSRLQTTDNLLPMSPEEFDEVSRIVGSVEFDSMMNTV
UniProt Q92793: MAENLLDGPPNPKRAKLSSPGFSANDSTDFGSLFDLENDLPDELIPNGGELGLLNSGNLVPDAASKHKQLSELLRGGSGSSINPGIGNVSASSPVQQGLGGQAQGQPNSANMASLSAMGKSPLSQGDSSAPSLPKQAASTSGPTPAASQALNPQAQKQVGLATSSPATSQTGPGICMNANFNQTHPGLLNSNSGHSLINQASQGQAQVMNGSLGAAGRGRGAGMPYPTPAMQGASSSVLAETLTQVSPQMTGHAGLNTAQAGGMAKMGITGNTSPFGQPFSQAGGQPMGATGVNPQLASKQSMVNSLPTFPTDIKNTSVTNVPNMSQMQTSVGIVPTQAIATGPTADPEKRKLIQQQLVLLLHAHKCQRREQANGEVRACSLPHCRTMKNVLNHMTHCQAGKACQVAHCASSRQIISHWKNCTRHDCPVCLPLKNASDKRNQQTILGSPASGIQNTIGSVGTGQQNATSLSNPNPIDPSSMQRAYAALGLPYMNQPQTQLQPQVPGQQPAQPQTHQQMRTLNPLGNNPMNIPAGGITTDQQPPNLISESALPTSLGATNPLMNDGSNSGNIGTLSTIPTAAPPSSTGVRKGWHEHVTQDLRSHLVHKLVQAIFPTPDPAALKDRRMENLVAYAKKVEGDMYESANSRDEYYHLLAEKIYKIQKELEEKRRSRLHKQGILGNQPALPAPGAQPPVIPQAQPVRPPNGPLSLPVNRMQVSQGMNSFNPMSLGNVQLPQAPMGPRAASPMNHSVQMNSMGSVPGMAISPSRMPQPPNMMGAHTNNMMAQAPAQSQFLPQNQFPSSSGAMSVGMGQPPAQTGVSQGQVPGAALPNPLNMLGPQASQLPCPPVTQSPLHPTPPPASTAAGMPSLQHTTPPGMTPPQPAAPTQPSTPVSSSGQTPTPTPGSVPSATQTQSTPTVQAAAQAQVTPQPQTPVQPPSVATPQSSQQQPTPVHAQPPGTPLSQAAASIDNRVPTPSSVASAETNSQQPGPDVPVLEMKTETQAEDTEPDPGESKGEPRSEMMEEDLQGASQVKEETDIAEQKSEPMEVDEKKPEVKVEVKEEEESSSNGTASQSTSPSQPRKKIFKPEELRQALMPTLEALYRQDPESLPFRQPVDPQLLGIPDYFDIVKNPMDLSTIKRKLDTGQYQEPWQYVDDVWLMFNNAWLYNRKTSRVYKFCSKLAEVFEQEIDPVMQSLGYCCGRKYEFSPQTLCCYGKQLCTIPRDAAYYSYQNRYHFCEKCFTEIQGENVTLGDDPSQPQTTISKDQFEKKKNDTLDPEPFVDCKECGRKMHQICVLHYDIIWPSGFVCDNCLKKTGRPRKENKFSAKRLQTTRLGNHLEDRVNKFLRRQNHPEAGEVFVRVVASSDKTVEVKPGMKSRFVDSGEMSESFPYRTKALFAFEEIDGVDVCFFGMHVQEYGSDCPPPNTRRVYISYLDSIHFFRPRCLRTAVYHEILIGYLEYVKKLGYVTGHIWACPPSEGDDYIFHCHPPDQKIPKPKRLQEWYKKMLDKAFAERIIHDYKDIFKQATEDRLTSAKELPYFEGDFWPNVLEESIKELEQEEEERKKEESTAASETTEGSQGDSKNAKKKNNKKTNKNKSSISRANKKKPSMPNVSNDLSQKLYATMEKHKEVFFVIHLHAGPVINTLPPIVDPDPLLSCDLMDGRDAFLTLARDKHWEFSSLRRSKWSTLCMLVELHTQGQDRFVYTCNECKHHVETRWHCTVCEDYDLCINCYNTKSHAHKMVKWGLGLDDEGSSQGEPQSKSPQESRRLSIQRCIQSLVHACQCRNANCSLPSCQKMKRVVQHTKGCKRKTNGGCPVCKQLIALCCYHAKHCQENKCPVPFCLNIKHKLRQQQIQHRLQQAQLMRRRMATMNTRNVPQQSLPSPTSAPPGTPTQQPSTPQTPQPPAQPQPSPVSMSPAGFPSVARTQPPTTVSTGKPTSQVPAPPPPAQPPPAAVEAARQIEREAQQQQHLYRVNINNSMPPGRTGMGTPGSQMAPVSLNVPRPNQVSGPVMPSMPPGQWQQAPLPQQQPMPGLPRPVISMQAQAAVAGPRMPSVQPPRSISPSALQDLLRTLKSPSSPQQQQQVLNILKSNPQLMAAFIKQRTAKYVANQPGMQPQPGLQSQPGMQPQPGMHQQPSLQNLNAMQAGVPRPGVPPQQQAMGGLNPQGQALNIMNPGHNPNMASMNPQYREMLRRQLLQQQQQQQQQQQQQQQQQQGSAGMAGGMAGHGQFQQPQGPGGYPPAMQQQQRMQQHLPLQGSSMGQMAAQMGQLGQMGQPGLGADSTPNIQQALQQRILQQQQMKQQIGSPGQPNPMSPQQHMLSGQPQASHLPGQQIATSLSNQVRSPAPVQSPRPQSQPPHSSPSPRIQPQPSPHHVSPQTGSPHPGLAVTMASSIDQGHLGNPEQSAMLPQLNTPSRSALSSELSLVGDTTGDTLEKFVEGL
UniProt Q09472: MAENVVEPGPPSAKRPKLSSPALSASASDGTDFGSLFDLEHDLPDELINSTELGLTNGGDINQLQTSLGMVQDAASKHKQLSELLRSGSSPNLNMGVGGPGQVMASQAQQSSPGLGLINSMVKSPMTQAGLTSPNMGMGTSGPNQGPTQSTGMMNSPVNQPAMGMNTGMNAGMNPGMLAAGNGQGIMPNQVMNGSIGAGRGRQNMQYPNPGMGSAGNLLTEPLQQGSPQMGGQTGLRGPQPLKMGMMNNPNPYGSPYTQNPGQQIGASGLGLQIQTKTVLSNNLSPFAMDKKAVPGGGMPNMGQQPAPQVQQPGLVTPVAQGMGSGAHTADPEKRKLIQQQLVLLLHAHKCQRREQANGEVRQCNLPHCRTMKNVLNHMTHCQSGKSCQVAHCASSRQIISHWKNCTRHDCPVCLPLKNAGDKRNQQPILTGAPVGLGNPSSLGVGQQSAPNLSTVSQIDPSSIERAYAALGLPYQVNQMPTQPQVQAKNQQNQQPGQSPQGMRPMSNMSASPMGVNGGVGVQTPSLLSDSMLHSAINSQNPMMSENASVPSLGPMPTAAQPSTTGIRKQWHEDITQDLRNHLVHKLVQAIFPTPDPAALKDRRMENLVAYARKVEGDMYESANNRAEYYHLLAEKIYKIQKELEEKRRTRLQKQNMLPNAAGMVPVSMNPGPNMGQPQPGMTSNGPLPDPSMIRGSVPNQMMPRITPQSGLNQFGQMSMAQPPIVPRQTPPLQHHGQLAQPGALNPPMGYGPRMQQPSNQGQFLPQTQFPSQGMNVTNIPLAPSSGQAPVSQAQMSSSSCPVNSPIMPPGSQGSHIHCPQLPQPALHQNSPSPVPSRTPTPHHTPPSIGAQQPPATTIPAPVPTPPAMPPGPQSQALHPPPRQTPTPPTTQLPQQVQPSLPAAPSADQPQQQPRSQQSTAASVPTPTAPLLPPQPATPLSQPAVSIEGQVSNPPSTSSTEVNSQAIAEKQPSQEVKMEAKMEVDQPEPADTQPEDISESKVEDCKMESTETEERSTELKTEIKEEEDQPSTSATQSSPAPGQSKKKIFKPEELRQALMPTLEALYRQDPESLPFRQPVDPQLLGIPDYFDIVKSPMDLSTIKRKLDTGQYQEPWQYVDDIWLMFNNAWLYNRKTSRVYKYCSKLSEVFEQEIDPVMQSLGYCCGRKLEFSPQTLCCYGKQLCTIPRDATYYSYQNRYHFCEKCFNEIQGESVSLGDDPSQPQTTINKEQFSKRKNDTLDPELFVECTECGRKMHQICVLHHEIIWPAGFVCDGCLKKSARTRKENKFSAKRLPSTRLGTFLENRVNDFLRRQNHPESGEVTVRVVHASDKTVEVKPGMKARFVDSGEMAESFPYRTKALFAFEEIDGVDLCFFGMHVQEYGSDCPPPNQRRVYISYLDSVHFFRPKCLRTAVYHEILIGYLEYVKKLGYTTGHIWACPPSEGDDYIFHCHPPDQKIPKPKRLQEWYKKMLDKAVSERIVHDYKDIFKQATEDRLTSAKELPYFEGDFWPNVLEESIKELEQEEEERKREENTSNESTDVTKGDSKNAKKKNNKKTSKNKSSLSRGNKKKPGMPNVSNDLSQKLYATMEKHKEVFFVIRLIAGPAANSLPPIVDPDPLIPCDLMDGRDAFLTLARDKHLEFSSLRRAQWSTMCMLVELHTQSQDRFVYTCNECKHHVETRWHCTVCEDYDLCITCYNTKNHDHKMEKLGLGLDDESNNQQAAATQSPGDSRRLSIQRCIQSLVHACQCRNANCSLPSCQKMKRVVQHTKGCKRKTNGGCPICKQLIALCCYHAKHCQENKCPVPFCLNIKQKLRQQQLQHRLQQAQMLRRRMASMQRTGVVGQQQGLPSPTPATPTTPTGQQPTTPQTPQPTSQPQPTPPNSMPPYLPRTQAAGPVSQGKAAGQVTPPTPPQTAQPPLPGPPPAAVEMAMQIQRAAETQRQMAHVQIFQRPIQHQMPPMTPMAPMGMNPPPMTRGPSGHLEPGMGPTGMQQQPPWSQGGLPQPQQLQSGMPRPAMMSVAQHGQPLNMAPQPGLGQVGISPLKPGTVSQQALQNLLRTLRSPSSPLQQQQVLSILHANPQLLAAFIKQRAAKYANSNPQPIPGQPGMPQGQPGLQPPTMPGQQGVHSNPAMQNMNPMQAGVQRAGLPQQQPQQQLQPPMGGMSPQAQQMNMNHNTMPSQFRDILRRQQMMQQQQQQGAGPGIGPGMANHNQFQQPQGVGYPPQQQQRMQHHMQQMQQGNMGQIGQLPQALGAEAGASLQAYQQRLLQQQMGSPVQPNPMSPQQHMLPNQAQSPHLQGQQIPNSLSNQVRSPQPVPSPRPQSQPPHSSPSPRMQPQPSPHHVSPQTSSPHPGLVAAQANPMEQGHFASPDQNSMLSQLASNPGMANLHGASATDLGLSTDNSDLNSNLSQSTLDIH

This test concerns the target STAT1 (total and phosphorylated), HEK293T (human (endogenous in HEK293T)) (UniProt P42224). Kind of test: affinity purification with mass spectrometry.

Results are given in words; binding and its absence hold for the method and conditions named. In cells and extracts the contact can be indirect. These calls come from enrichment with a bait or labelling near it, and not all partners need be listed.

“CBP, HEK293T (from UniProt Q92793 1-2442)”: the binding result is “binds”.

As for “p300, HEK293T (from UniProt Q09472 1-2414)”, the binding entry is reported as “binds”.
